Source: patent US8992933B2, “Methods for activating T cells and modulating an immune response” (New York University, priority 2011, dated 2015)
At least one structure is not confirmed: it was looked up by name or label, or the drawing left a doubt.

Columns and labels:
[1] = system: PI 3-kinases; details: certain class II members show decreased sensitivity; cited from earlier work
[2] = system: Klf2; assay: Klf2 mRNA by RT-qPCR in TM cells; format: cell-based, human
Experimental: Peripheral Blood Mononuclear Cells (PBMCs) from healthy individuals (New York Blood Center, New York, N.Y.) were prepared using Ficoll-paque plus (GE Amersham, Uppsala, Sweden). Whole blood samples from rheumatoid arthritis patients were purchased from Bioreclamation (New York, N.Y.) and were processed similar to healthy donor blood. All healthy donor and patient samples were consented prior to purchase, were none-identifiable and approved by institutional human subjects board. CD4^+ T cells were isolated using Dynal CD4 Positive Isolation Kit (Invitrogen, Carlsbad, Calif.) directly from purified PBMCs and were >99% pure. […] TM cells were activated either by anti-CD3 and anti-CD28 (aCD3/aCD28) coated beads (1:4 beads:cells ratio) for 18-24 hours, or by Phorbol 12-myristate 13-acetate (PMA) and ionomycin for 4 hours and further FACS sorted based on CCR6 and IL-17 expression into CCR6^− IL-17^−, CCR6^+IL-17^+, or CCR6^+IL-17^− subsets (as determined by secretion assay labeling, see below). […]
Purified T cells (1×10^5) were snap frozen in liquid nitrogen for total RNA isolation. […] The extracted RNA was then reverse transcribed into cDNA and quantified using Taqman Cell to CT kit (Applied Biosystems, Carlsbad, Calif.). […] Data was acquired and analyzed on ABI 7500 sequence detection system. […]

[3] = system: CCR6+ TM cells; assay: PI-3K/Akt inhibitor treatment of IL-7-cultured CCR6+ TM cells, cytokine production after PMA and ionomycin; format: cell-based, human
[4] = system: Akt phosphorylation; assay: Intracellular phospho-Akt (Ser473) staining; format: cell-based, human
Experimental: Cells were stained as previously described (Oswald-Richter, et al., PLoS Pathogens 2007; 3: e58). For intracellular staining, T cell cultures were stimulated for 5 hours at 37° C. with PMA and Ionomycin and Golgistop (BD Biosciences). Stimulated cells were washed with PBS and stained with Fixable Viability Dye eFluor450 (eBioscience) to gate on live cells. Cells were then fixed and permeabilized by commercially available Foxp3 intracellular staining kit (eBioscience) or cytofix/cytoperm kit (BD Biosciences) as per manufacturer's protocol. Antibodies used for surface and intracellular staining included: CD45RO-[…]3), PE Cy7 or A700; […] IL-17A (IL-17)-Pacific Blue (Clone BL168), FITC or Percp Cy5.5; […]) or APC (eBioscience); […] FOXO1 rabbit monoclonal antibody; phospho-AKT ([…])-Alexa Fluor 488; Rabbit IgG isotype control-Alexa Fluor 488 (Cell Signaling, Danvers, Mass.); and CCR6-biotin (BD Biosciences). Secondary antibodies used were: Streptavidin-APC or […]5.5 (BD Biosciences), Goat anti mouse-APC (BD Biosciences), anti rabbit-Alexa 647 (Molecular Probes). All data were acquired on LSRII instrument (BD Biosciences) using FACSDiva software. Data analyses were done using Flowjo software (Treestar Inc, Ashland, Oreg.). For phospho-Akt staining, Jurkat cells were fixed with BD Cytofix buffer (BD Biosciences) pre-warmed to 37° C. for 10 minutes. […]

[5] = system: Rorc and Foxp3; assay: Rorc and Foxp3 mRNA by RT-qPCR in CCR6+/- cells; format: cell-based, human; details: IL-7 medium 7 days, then inhibitor for 2 days
Experimental: Peripheral Blood Mononuclear Cells (PBMCs) from healthy individuals (New York Blood Center, New York, N.Y.) were prepared using Ficoll-paque plus (GE Amersham, Uppsala, Sweden). Whole blood samples from rheumatoid arthritis patients were purchased from Bioreclamation (New York, N.Y.) and were processed similar to healthy donor blood. All healthy donor and patient samples were consented prior to purchase, were none-identifiable and approved by institutional human subjects board. […] Sorted cells (>99% pure) were cultured in serum-free Xvivo-15 medium (Lonza, Wakersville, Md.) at 37° C. and 5% CO2 for 6-7 days prior to restimulation with PMA and ionomycin (see below). […]). […] In the experiments using PI-3K signaling inhibitors, cells were treated with PI-3K specific inhibitor, LY294002 (EMD, Gibbstown, N.J.), or Akt specific inhibitor, AKTi-1/2 (EMD), for 2 days before PMA and Ionomycin restimulation. Purified T cells (1×10^5) were snap frozen in liquid nitrogen for total RNA isolation. […] The extracted RNA was then reverse transcribed into cDNA and quantified using Taqman Cell to CT kit (Applied Biosystems, Carlsbad, Calif.). […] Data was acquired and analyzed on ABI 7500 sequence detection system. Quantitative real-time PCR data was analyzed by normalizing Ct values of genes of interest to the Ct values of the housekeeping gene b-Actin.

Row | Compound | inhibition of all PI 3-kinases [1] | Klf2 transcripts in CCR6+ TM cells cultured in IL-7 ([2]; Day 10, dose-dependent) | Klf2 message expression in aCD3/aCD28-activated CCR6+ TM cells expanded in IL-2 ([2]; IL-2 medium 2 weeks, inhibitor for 2 days) | IL-17 and IL-22 production induced by IL-7 from CCR6+ TM cells ([3]; 5 μg/ml, Day 10) | expression of IFNγ ([3]; one week in IL-7, then inhibitor for 48 hours) | γc-mediated IL-17/IL-22 induction ([3]; one week in IL-7, then inhibitor for 48 hours, dose-dependent) | reversibility of inhibition of IL-17 and IL-22 expression ([3]; removal of inhibitor from culture medium (unpublished data)) | Akt phosphorylation (Ser473) in Jurkat cells ([4]; Jurkat T cells treated for 30 minutes) | cytokine-dependent phosphorylation of Akt ([4]; TM cells, 1-10 μg/mL) | Rorc and Foxp3 transcripts [5]
1 | O=c1cc(N2CCOCC2)oc2c(-c3ccccc3)cccc12 [LY294002] | inhibited | upregulates | upregulates | suppresses | not affected | repressed | completely reversible | Inhibition of Akt phosphorylation | downregulated | not affected
2 | COC[C@H]1OC(=O)c2coc3c2[C@@]1(C)C1=C(C3=O)[C@@H]2CCC(=O)[C@@]2(C)C[C@H]1OC(C)=O [wortmannin] | inhibited |  |  |  |  |  |  |  |  | 
